Here are results for two molecules from PMC8169952.

Sequences of proteins named here, by UniProt entry; tags and fusion partners are left off. A change or cut given only in a name is not applied to a line headed by its entry.
UniProt O60603: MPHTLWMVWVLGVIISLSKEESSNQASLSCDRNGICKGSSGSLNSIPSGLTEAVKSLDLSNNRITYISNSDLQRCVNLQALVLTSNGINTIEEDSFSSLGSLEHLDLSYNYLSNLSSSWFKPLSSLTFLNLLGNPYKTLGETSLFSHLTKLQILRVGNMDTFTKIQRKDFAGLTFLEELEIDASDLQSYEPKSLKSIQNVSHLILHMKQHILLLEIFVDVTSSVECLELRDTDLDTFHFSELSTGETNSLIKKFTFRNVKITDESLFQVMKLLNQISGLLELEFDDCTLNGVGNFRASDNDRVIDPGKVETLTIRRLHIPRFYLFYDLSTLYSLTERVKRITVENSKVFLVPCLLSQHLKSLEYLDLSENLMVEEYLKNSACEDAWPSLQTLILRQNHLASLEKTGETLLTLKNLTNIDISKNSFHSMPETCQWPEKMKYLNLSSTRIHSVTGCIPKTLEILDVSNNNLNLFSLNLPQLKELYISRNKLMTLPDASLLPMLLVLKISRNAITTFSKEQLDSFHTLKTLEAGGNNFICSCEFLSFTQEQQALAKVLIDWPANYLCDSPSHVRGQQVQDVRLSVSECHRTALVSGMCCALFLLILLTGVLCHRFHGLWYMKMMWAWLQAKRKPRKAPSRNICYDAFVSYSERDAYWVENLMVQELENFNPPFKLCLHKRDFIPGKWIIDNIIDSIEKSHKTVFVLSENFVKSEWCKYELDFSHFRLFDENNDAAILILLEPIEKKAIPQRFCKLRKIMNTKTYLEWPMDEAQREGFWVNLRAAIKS

No constants are given. Whether binding was seen depends on the method and setting. In cells and extracts the contact can be indirect. Some binding calls cover weakened binding; strength is not graded here.

For test [1], the target named is T1, Recombinant Human Apo-SAA1 (serum amyloid A1) (human) (UniProt P0DJI8).
T1 sequence: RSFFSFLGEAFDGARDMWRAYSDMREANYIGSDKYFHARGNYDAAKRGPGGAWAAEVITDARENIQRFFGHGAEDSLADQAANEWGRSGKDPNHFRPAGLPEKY
Nature of the test: co-IP; lysate of rhSAA1-treated LX-2 cells in co-IP buffer; precipitated with anti-SAA1 (sc-52211) or anti-TLR2 (sc-166900) overnight at 4 °C, protein A/G magnetic beads 1 hour at RT; read by silver staining and western blot; IgG as negative control. On the technique in general: In western blotting, separated proteins are transferred to a membrane and probed.

For test [2], the target named is Toll-like receptor 2 (human (endogenous in LX-2)) (UniProt O60603). Described as above.

Consider “Toll-like receptor 2 (from UniProt O60603 21-784)”, for which, in test [1], the binding entry is reported as “binds”.

B1: Recombinant Human Apo-SAA1 (serum amyloid A1) (ligand, UniProt P0DJI8 19-122)
chain: RSFFSFLGEAFDGARDMWRAYSDMREANYIGSDKYFHARGNYDAAKRGPGGAWAAEVITDARENIQRFFGHGAEDSLADQAANEWGRSGKDPNHFRPAGLPEKY
For the molecule B1, the binding result in test [2] was “binds”.
